Laboratory results: PubChem BioAssay AID1259298 (Sanger Institute, 2017)

Aim: 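Kinome knock-downs lethal on their own or synergising with anchor drugs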 (primary screen)
Cells: HT55 human colorectal cancer cell line
Knock-down reagent: siRNA pool against human genes
Treatment: anchor drug BYL719 1 µM, cetuximab 5 µg/ml or trametinib 10 nM, or DMSO vehicle alone
Measurement: 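Mean viability over replicates versus non-targeting pool, a robust z-score without drug, and per-drug synergy scores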
Direction: robust z-score, knock-down alone: higher = more cells remaining; low means essential gene; viability vs control pool, no drug: higher = more viable cells; synergy score with BYL719: higher = stronger synthetic lethality with the drug
Rule for the call: 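Essential when the robust z-score for knock-down alone with DMSO is below -3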
Calls: active = essential (knock-down alone); inactive = no change alone
This is an unselected part of 794 reagents. 20 of them (2.5%) count as active. 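Calls rest only on the knock-down-alone score; drug synergy scores played no part in them.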 No viability above 1 is reported: the scale is capped. Further read-outs or replicates are left out here. Not given: the amount of reagent, the time to read-out.

gene	robust z-score, knock-down alone	viability vs control pool, no drug (fraction)	synergy score with BYL719	call
CAMK1G	-0.361	0.926	-0.161	inactive
NPR2	0.58	1	-0.074	inactive
PAPSS2	0.299	0.978	-0.287	inactive
PRKX	0.58	1	-0.217	inactive
AK4	0.58	1	-0.101	inactive
AKT1	0.58	1	-0.249	inactive
HCK	0.58	1	0.0032	inactive
FGR	0.211	0.971	-0.0515	inactive
NRK	0.58	1	-0.22	inactive
MAP3K3	-0.294	0.932	-0.206	inactive
CDKN2C	0.58	1	-0.16	inactive
PRKAG3	-4.79	0.58	-0.161	active
ADPGK	-0.423	0.922	-0.145	inactive
SIK3	0.58	1	-0.272	inactive
GUCY2C	0.134	0.965	-0.293	inactive

Sorted by “synergy score with BYL719” (lowest first): some entries from above
gene	robust z-score, knock-down alone	viability vs control pool, no drug (fraction)	synergy score with BYL719	call
MAP3K3	-0.294	0.932	-0.206	inactive
CDKN2C	0.58	1	-0.16	inactive

The list goes on.
gene	robust z-score, knock-down alone	viability vs control pool, no drug (fraction)	synergy score with BYL719	call
BPTF	-1.08	0.87	-0.0414	inactive
STK36	0.58	1	-0.184	inactive
CAMKK1	0.532	0.996	-0.25	inactive
KHK	0.58	1	-0.204	inactive
FGFR2	0.58	1	-0.153	inactive
ARAF	0.58	1	-0.176	inactive
PRKAA1	0.58	1	-0.257	inactive
TAF1L	0.58	1	-0.00492	inactive
ERN1	-1.36	0.848	-0.0347	inactive
MAP3K7	0.437	0.989	-0.165	inactive
FXN	-0.496	0.916	-0.228	inactive
GALK2	0.58	1	0.0269	inactive
TAOK1	-0.806	0.892	-0.126	inactive
CDKN1B	0.153	0.967	-0.104	inactive
BUB1B	-0.391	0.924	-0.161	inactive
FES	-0.908	0.884	-0.0598	inactive
MAP3K9	-1.02	0.875	-0.0909	inactive
CDK2	0.58	1	-0.272	inactive
PRKAB2	-1.47	0.84	-0.189	inactive
